Measured values published in article PMC8523568.
Results are given in words; binding and its absence hold for the method and conditions named. In cells and extracts the contact can be indirect. Here binding means that the protein was enriched with, or labelled near, the bait; the list need not be complete. For part of these data: A no says only that the protein was not detected with the bait. Sequences can lack the tags named with a protein.

T1: human CaSR with FLAG-tag (FLAG-hCaSR) (human) (UniProt P41180)
T1 sequence: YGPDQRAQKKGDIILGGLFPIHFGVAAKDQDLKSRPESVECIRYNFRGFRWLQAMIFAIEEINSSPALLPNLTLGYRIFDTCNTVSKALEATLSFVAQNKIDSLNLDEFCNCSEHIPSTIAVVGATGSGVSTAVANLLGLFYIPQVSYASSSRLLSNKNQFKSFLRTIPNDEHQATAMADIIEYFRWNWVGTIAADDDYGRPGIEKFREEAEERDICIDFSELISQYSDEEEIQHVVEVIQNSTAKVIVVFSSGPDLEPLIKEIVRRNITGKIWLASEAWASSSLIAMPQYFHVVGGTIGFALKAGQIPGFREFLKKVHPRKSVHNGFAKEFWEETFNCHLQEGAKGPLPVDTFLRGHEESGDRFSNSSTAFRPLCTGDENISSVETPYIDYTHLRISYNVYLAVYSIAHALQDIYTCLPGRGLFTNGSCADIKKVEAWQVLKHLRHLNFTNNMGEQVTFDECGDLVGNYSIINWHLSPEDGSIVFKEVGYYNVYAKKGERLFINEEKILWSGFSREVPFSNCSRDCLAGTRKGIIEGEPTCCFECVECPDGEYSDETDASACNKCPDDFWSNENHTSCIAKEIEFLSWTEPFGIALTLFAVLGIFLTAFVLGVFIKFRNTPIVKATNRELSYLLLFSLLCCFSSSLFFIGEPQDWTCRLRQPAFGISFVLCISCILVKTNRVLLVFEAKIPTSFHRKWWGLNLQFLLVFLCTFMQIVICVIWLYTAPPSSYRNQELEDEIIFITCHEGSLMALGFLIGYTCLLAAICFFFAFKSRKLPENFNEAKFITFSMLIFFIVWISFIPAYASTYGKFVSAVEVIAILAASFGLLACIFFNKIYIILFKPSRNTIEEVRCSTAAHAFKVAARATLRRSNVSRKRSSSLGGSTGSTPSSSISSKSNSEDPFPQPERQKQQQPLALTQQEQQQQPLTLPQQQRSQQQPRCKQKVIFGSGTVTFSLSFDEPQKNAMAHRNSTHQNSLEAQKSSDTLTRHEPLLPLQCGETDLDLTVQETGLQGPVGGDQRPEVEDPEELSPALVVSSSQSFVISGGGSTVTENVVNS

B1: DDOST (protein, UniProt P39656 43-456)
chain: SGPRTLVLLDNLNVRETHSLFFRSLKDRGFELTFKTADDPSLSLIKYGEFLYDNLIIFSPSVEDFGGNINVETISAFIDGGGSVLVAASSDIGDPLRELGSECGIEFDEEKTAVIDHHNYDISDLGQHTLIVADTENLLKAPTIVGKSSLNPILFRGVGMVADPDNPLVLDILTGSSTSYSFFPDKPITQYPHAVGKNTLLIAGLQARNNARVIFSGSLDFFSDSFFNSAVQKAAPGSQRYSQTGNYELAVALSRWVFKEEGVLRVGPVSHHRVGETAPPNAYTVTDLVEYSIVIQQLSNGKWVPFDGDDIQLEFVRIDPFVRTFLKKKGGKYSVQFKLPDVYGVFQFKVDYNRLGYTHLYSSTQVSVRPLQHTQYERFIPSAYPYYASAFSMMLGLFIFSIVFLHMKEKEKSD
B2: RPN1 (protein, UniProt P04843 24-607)
chain: ASSEAPPLINEDVKRTVDLSSHLAKVTAEVVLAHLGGGSTSRATSFLLALEPELEARLAHLGVQVKGEDEEENNLEVRETKIKGKSGRFFTVKLPVALDPGAKISVIVETVYTHVLHPYPTQITQSEKQFVVFEGNHYFYSPYPTKTQTMRVKLASRNVESYTKLGNPTRSEDLLDYGPFRDVPAYSQDTFKVHYENNSPFLTITSMTRVIEVSHWGNIAVEENVDLKHTGAVLKGPFSRYDYQRQPDSGISSIRSFKTILPAAAQDVYYRDEIGNVSTSHLLILDDSVEMEIRPRFPLFGGWKTHYIVGYNLPSYEYLYNLGDQYALKMRFVDHVFDEQVIDSLTVKIILPEGAKNIEIDSPYEISRAPDELHYTYLDTFGRPVIVAYKKNLVEQHIQDIVVHYTFNKVLMLQEPLLVVAAFYILFFTVIIYVRLDFSITKDPAAEARMKVACITEQVLTLVNKRIGLYRHFDETVNRYKQSRDISTLNSGKKSLETEHKALTSEIALLQSRLKTEGSDLCDRVSEMQKLDAQVKELVLKSAVEAERLVAGKLKKDTYIENEKLISGKRQELVTKIDHILDAL
B3: GANAB (protein, UniProt Q14697 29-944)
chain: ITLAVDRSNFKTCEESSFCKRQRSIRPGLSPYRALLDSLQLGPDSLTVHLIHEVTKVLLVLELQGLQKNMTRFRIDELEPRRPRYRVPDVLVADPPIARLSVSGRDENSVELTMAEGPYKIILTARPFRLDLLEDRSLLLSVNARGLLEFEHQRAPRVSQGSKDPAEGDGAQPEETPRDGDKPEETQGKAEKDEPGAWEETFKTHSDSKPYGPMSVGLDFSLPGMEHVYGIPEHADNLRLKVTEGGEPYRLYNLDVFQYELYNPMALYGSVPVLLAHNPHRDLGIFWLNAAETWVDISSNTAGKTLFGKMMDYLQGSGETPQTDVRWMSETGIIDVFLLLGPSISDVFRQYASLTGTQALPPLFSLGYHQSRWNYRDEADVLEVDQGFDDHNLPCDVIWLDIEHADGKRYFTWDPSRFPQPRTMLERLASKRRKLVAIVDPHIKVDSGYRVHEELRNLGLYVKTRDGSDYEGWCWPGSAGYPDFTNPTMRAWWANMFSYDNYEGSAPNLFVWNDMNEPSVFNGPEVTMLKDAQHYGGWEHRDVHNIYGLYVHMATADGLRQRSGGMERPFVLARAFFAGSQRFGAVWTGDNTAEWDHLKISIPMCLSLGLVGLSFCGADVGGFFKNPEPELLVRWYQMGAYQPFFRAHAHLDTGRREPWLLPSQHNDIIRDALGQRYSLLPFWYTLLYQAHREGIPVMRPLWVQYPQDVTTFNIDDQYLLGDALLVHPVSDSGAHGVQVYLPGQGEVWYDIQSYQKHHGPQTLYLPVTLSSIPVFQRGGTIVPRWMRVRRSSECMKDDPITLFVALSPQGTAQGELFLDDGHTFNYQTRQEFLLRRFSFSGNTLVSSSADPEGHFETPIWIERVVIIGAGKPAAVVLQTKGSPESRLSFQHDPETSVLVLRKPGINVASDWSIHLR
B4: TBL2 (protein, UniProt Q9Y4P3 1-447)
chain: MELSQMSELMGLSVLLGLLALMATAAVARGWLRAGEERSGRPACQKANGFPPDKSSGSKKQKQYQRIRKEKPQQHNFTHRLLAAALKSHSGNISCMDFSSNGKYLATCADDRTIRIWSTKDFLQREHRSMRANVELDHATLVRFSPDCRAFIVWLANGDTLRVFKMTKREDGGYTFTATPEDFPKKHKAPVIDIGIANTGKFIMTASSDTTVLIWSLKGQVLSTINTNQMNNTHAAVSPCGRFVASCGFTPDVKVWEVCFGKKGEFQEVVRAFELKGHSAAVHSFAFSNDSRRMASVSKDGTWKLWDTDVEYKKKQDPYLLKTGRFEEAAGAAPCRLALSPNAQVLALASGSSIHLYNTRRGEKEECFERVHGECIANLSFDITGRFLASCGDRAVRLFHNTPGHRAMVEEMQGHLKRASNESTRQRLQQQLTQAQETLKSLGALKK
B5: PRDX1 (protein, UniProt Q06830 1-199)
chain: MSSGNAKIGHPAPNFKATAVMPDGQFKDISLSDYKGKYVVFFFYPLDFTFVCPTEIIAFSDRAEEFKKLNCQVIGASVDSHFCHLAWVNTPKKQGGLGPMNIPLVSDPKRTIAQDYGVLKADEGISFRGLFIIDDKGILRQITVNDLPVGRSVDETLRLVQAFQFTDKHGEVCPAGWKPGSDTIKPDVQKSKEYFSKQK
B6: GPALPP1 (protein, UniProt Q8IXQ4 1-340)
chain: MARDLIGPALPPGFKARGTAEDEERDPSPVAGPALPPNYKSSSSDSSDSDEDSSSLYEEGNQESEEDDSGPTARKQRKNQDDDDDDDDGFFGPALPPGFKKQDDSPPRPIIGPALPPGFIKSTQKSDKGRDDPGQQETDSSEDEDIIGPMPAKGPVNYNVTTEFEKRAQRMKEKLTKGDDDSSKPIVRESWMTELPPEMKDFGLGPRTFKRRADDTSGDRSIWTDTPADRERKAKETQEARKSSSKKDEEHILSGRDKRLAEQVSSYNESKRSESLMDIHHKKLKSKAAEDKNKPQERIPFDRDKDLKVNRFDEAQKKALIKKSRELNTRFSHGKGNMFL
B7: PTPN1 (protein, UniProt P18031 1-435)
chain: MEMEKEFEQIDKSGSWAAIYQDIRHEASDFPCRVAKLPKNKNRNRYRDVSPFDHSRIKLHQEDNDYINASLIKMEEAQRSYILTQGPLPNTCGHFWEMVWEQKSRGVVMLNRVMEKGSLKCAQYWPQKEEKEMIFEDTNLKLTLISEDIKSYYTVRQLELENLTTQETREILHFHYTTWPDFGVPESPASFLNFLFKVRESGSLSPEHGPVVVHCSAGIGRSGTFCLADTCLLLMDKRKDPSSVDIKKVLLEMRKFRMGLIQTADQLRFSYLAVIEGAKFIMGDSSVQDQWKELSHEDLEPPPEHIPPPPRPPKRILEPHNGKCREFFPNHQWVKEETQEDKDCPIKEEKGSPLNAAPYGIESMSQDTEVRSRVVGGSLRGAQAASPAKGEPSLPEKDEDHALSYWKPFLVNMCVATVLTAGAYLCYRFLFNSNT

Tests used:
[1] = biological target: T1, human CaSR with FLAG-tag (FLAG-hCaSR) (human); experiment: affinity purification with mass spectrometry; as a1, only the samples of cells treated with 2 mM EGTA for 2 h (extracellular Ca2+ chelated)
[2] = biological target: T1, human CaSR with FLAG-tag (FLAG-hCaSR) (human); experiment: affinity purification with mass spectrometry; anti-FLAG M2 on Protein G Dynabeads, 1.0 mg cleared lysate (1% Triton X-100, 150 mM NaCl, Tris pH 7.4) of HEK293 cells transfected with FLAG-hCaSR or empty pcDNA3.1, 10 h at 4 °C; cells serum-starved, then treated with 4 mM Ca2+ or 2 mM EGTA for 2 h; on-bead digestion, LC-MS/MS, triplicates; hits at least twofold over the negative control, P ≤ 0.05
[3] = biological target: T1, human CaSR with FLAG-tag (FLAG-hCaSR) (human); experiment: as above; remark: listed apart in the source

Molecule	binding [1]	binding [2]	binding [3]
GNAI (Gαi) (human (endogenous in HEK293))	no binding (only cells treated with 2 mM EGTA)	binds	
B1			binds
B2			binds
B3			binds
B4			binds
B5			binds
B6			binds
B7			binds
